LdMetRS: 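Primary screen of methionyl-tRNA synthetase; the read-out is not stated. Target: Methionyl-tRNA synthetase (putative), Leishmania donovani (UniProt E9BF75). The test concentration is not given. Values are per cent inhibition. Size under these conditions: about 68,000 compounds, about 24 of them at 50% or above in at least one test.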
Mtb heat-shock: 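Assay on Mycobacterium tuberculosis, filed only as a heat shock assay from Cornell; the read-out is not stated. The concentration is filed as 10 mM, unlikely as a test dose, so the dose is not known. Higher reads as stronger inhibition (inferred: compounds with an IC50 in retests scored well above the rest). Size under these conditions: about 69,000 compounds, about 930 of them at 50% or above in at least one test.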

Protein sequences, listed by entry. Tags and fused reporters are not part of them.
UniProt E9BF75, entry or part of it: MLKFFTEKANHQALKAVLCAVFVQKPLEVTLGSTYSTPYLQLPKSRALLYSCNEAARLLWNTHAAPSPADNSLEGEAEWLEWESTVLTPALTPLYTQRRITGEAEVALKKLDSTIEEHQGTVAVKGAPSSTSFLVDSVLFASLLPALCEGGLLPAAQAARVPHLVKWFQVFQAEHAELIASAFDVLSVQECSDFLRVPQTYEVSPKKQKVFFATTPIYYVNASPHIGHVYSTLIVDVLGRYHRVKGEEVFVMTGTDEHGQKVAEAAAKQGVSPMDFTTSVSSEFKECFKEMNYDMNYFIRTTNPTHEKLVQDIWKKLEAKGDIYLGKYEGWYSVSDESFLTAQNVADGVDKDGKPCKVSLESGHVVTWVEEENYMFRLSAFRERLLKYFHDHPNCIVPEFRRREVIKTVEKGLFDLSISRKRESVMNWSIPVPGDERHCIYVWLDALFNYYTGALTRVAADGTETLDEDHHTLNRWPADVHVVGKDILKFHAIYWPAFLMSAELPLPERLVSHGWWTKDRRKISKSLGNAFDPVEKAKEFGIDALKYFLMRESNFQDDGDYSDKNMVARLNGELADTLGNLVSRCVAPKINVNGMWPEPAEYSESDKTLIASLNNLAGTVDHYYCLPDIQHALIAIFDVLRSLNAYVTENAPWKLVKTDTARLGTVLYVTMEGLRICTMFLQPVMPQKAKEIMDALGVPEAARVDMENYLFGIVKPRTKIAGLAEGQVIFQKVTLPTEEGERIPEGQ

All values are in %. The record does not define 0% and 100%; most values in the screen are far below 50% and negative numbers occur (in some assays of this library far below -100). Compounds were drawn at random from those tested, without regard to their results. A dash means the value is not listed here; it may have been measured.

| # | structure | LdMetRS | Mtb heat-shock |
|---|---|---|---|
| 1 | `CN(CCc1ccccn1)C(=O)C(O)c1cc(Cl)cc(Cl)c1` (stereo not drawn) | 3.254 | -8.254 |
| 2 | `COc1ccccc1S(=O)(=O)N1CCC(Oc2cccnn2)CC1` | 5.419 | -10.68 |
| 3 | `CC(C)(C)c1cc(NC(=O)CN2CCn3c(nnc3C3CC3)C2)on1` | 4.918 | 7.104 |
| 4 | `[H][C@]12CCN(S(=O)(=O)N(C)C)C[C@@]1([H])CN(Cc1cnn(C)c1)C2` | - | -25.96 |
| 5 | `[H][C@]12CC[C@]([H])(CN(C(=O)CCc3c(C)nn(C)c3C)C1)N(CCOC)C2` | - | 4.121 |
| 6 | `COc1cccc(C(=O)NCCCN2CCc3ccccc3C2)c1OC` | 11.19 | -0.5986 |
| 7 | `Cc1c(F)cccc1S(=O)(=O)N(C)CC(C)O` (stereo not drawn) | 9.059 | -7.389 |
| 8 | `COc1ccc(-c2cc(C(=O)NCCC(C)C)n(C)n2)cc1` | 10.3 | 47.72 |
| 9 | `CN(C)C(=O)C1OC2(CCN(C(=O)c3ccco3)CC2)c2ccccc21` (stereo not drawn) | 20.46 | 1.154 |
| 10 | `OCCC1CN(c2nc(-c3cccnc3)nc3c2CCNCC3)CCO1` (stereo not drawn) | 13.48 | -35.11 |
| 11 | `O=C(CCCOCc1ccccc1)N1CCCC(c2ncc[nH]2)C1` (stereo not drawn) | 7.988 | -13.15 |
| 12 | `Fc1ccc(-c2cnc(C3CCCN3)cn2)cc1` (stereo not drawn) | 17.08 | - |
| 13 | `Cc1cccc(C2(CNC(=O)C(C)S(C)(=O)=O)CCCC2)c1` (stereo not drawn) | 20.95 | -10.15 |
| 14 | `COc1ccc(C(=O)NCc2ccc(C(=O)O)o2)cc1` | 7.895 | -12.52 |
| 15 | `CN(Cc1cccc2ncccc12)C(=O)CCn1ccc(=O)[nH]c1=O` | 4.53 | -1.789 |
| 16 | `CCc1noc(C(C)N2CCN(CC)CC2)n1` (stereo not drawn) | 9.538 | -4.822 |
| 17 | `COC(=O)c1ccc(N2CCN(C(=O)c3ccco3)C(C)C2)cc1` (stereo not drawn) | 21.23 | -17.07 |
| 18 | `c1ccc(-c2nc(CNCC3CCCN3c3cccnn3)co2)cc1` (stereo not drawn) | 18.03 | 102.8 |
| 19 | `Cc1ccn(CCC(=O)NCCc2ccco2)n1` | -5.077 | -32.38 |
| 20 | `CCOCC1c2c(ncn2C(C)C)CCN1C(C)C.O=C(O)C(F)(F)F.O=C(O)C(F)(F)F` (stereo not drawn) | - | -5.79 |
| 21 | `COc1ccc(C(=O)O)c(OCC(=O)NC(C)c2ccccc2)c1` (stereo not drawn) | 10.11 | -2.459 |
| 22 | `CN(CC(F)(F)F)C(=O)C1CSCN1C(=O)OC(C)(C)C` (stereo not drawn) | 10.34 | 7.19 |
| 23 | `COc1cccc(C2CCCN2CCCNS(C)(=O)=O)c1` (stereo not drawn) | 16.62 | -10.08 |
| 24 | `CCN(CC)CCN(C)c1nc(-c2ccc(Cl)cc2)nc2c1CNC2` | 23.92 | -8.046 |
| 25 | `Cc1ccc(CCNc2nccc(-c3cc(C(=O)O)ccn3)n2)o1` | 5.867 | 12.39 |
| 26 | `COc1cccc(CC2CCCN2CCCO)c1` (stereo not drawn) | 7.357 | 29.14 |
| 27 | `CN(Cc1nnc(C2CC2)n1C)C1CCN(Cc2ccccc2F)C1` (stereo not drawn) | 9.5 | -7.886 |
| 28 | `Cc1c(-c2c(-c3ccccc3)ncn2[C@H](CO)C(=O)O)cnn1C` | 4.658 | -20.37 |
| 29 | `N#Cc1cccc(NC(=O)N2CCCC(N3CCCC3=O)C2)c1` (stereo not drawn) | 11.52 | -17.81 |
| 30 | `COc1ccccc1S(=O)(=O)N1CCN(C)[C@@H]2CS(=O)(=O)C[C@@H]21` | 6.969 | - |
| 31 | `CN1C(=O)CC(c2ccccc2)C12CCN(c1ncccn1)CC2` (stereo not drawn) | 3.922 | -10.6 |
| 32 | `COc1cccc2c1OCC(CNC(=O)CCCN1CCOCC1)C2` (stereo not drawn) | 4.089 | 4.254 |
| 33 | `COc1ccc(OC)c(CCC(=O)Nc2cc(C)n[nH]2)c1` | 13.04 | 3.239 |
| 34 | `CC(C)=CCN1C[C@H]2CC[C@@H]1CN(C(=O)c1ccc3c(c1)OCO3)C2` | 10.05 | - |
| 35 | `O=C(c1cccnc1)N1Cc2nccn2CC(COc2cccnc2)C1` (stereo not drawn) | 7.397 | - |
| 36 | `COc1ccccc1C1(CNCc2ccc(C#N)cc2)CCOCC1` | 15.01 | -1.399 |
| 37 | `COCC(=O)N1CC2(CCN(c3ccccc3)C2)C1` | 14.29 | 3.325 |
| 38 | `C[C@H]1CC[C@H](C(=O)N2CCC(n3cc(C4(O)CCCC4)nn3)CC2)CC1` | 8.865 | 34.64 |
| 39 | `CSCCC(=O)N1CCCC(n2ccnc2)C1` (stereo not drawn) | 6.557 | 5.111 |
| 40 | `Cc1nc(CN2C(=O)CCC23CCN(Cc2ccccn2)CC3)cs1.O=C(O)C(F)(F)F.O=C(O)C(F)(F)F` | - | -15.94 |
| 41 | `[H][C@@]12OCCN(C(=O)CC3=CCCCC3)[C@@]1([H])CC[C@H]2OCC` | - | 8.59 |

Once more, the final 4:

| structure | LdMetRS | Mtb heat-shock |
|---|---|---|
| `C[C@H]1CC[C@H](C(=O)N2CCC(n3cc(C4(O)CCCC4)nn3)CC2)CC1` | 8.865 | 34.64 |
| `CSCCC(=O)N1CCCC(n2ccnc2)C1` (stereo not drawn) | 6.557 | 5.111 |
| `Cc1nc(CN2C(=O)CCC23CCN(Cc2ccccn2)CC3)cs1.O=C(O)C(F)(F)F.O=C(O)C(F)(F)F` | - | -15.94 |
| `[H][C@@]12OCCN(C(=O)CC3=CCCCC3)[C@@]1([H])CC[C@H]2OCC` | - | 8.59 |

The values are deposited in ChEMBL (CHEMBL3988442, “University of Dundee, Small-Polar-MMV Screening Library” (2021)).